Assay results reported in patent publication US9849174B2, “Methods and compositions related to immunogenic fibrils” (The Board of Regents of the University of Texas System, priority 2009, dated 2017).
For some of these results: Part of at least one peptide drawing is inferred or uncertain, most often the ends. For some of these results: At least one compound was matched to its structure with a doubt left. Ends that are not written are not given here.

Assays:
[1] = system: KO mice lacking both the αβ and γδ receptors; assay: Immunization of T cell receptor KO mice, antibody production; type: in vivo; settings: over 6 wks
From the text: To confirm the necessity of T cells, KO mice lacking both the αβ and γδ receptors for CD4^+ T cells were immunized with OVA-Q11 along with wild type controls. […] The wild type control mice responded as expected. […] To ensure that the KO mice are capable of eliciting immune responses, they were immunized with a T-independent antigen, NP-Ficoll. […] This finding might not be surprising because OVA is a strong MHC class II peptide, containing both B and T cell determinants.

C57BL/6 mice = assay: Long-term serum antibody ELISA after immunization with Q11-linked peptides (Example 2)
[2] = cited from earlier work

| Compound | Antibody production in T cell receptor KO mice [1] | Spike of antibody levels after the boost at wk 4 (C57BL/6 mice; 100 nmol and 50 nmol groups) | Time of maximum antibody levels (C57BL/6 mice; 100 nmol and 50 nmol groups) [wk] | Reactivity of antibodies with whole ovalbumin (C57BL/6 mice; ELISA plates coated with ovalbumin) | Antibody production, 100 nmol compared with 50 nmol group (C57BL/6 mice; after the boost and throughout the study) | Time for which antibodies were detectable (C57BL/6 mice; boost at wk 4) | Cytotoxicity and cell proliferation [2] |
| --- | --- | --- | --- | --- | --- | --- | --- |
| ISQAVHAAHAEINEAGRSGSGQQKFQFQFEQQ-NH2 (C-terminus assumed) [O-Q11] | No antibody production | approximately 2.5 fold | ~6 | reactive against ovalbumin | no significant difference | at least 36 wks | – |
| C[C@@H](N)C(=O)O [D-Ala] | – | – | – | – | – | – | cytotoxic |
